Laboratory results: US5912270A, “Anti-inflammatory compounds” (SmithKline Beecham Corporation, priority 1996, dated 1999)
Structures can show the parent of a compound that is named as a salt. At least one structure is not confirmed: it was looked up by name or label, or the drawing left a doubt.

Tested on: TPA-induced Mouse Ear Inflammation
Test: Assay (g): TPA-induced Mouse Ear Inflammation (edema and MPO)
Format: in vivo
Conditions: mouse ear inflammation models (TPA and AA)
Method: Male Balb/c inbred mice were obtained from Charle River Breeding Laboratories (Kingston, N.Y.). Within a single experiment mice (22-25 g) were age-matched. These in vivo experiments typically involved use of 5-6 animals/group.
TPA (12-0-tetradecanoylphorbol 13-acetate) (Sigma Chemical Company) in acetone (4 mg/20 ml) was applied to the inner and outer surfaces of the left ear of BALB/c male mice. The thickness of both ears was then measured with a dial micrometer (Mitutoyo, Japan) at both 2 and 4 hours after treatment, and the data expressed as the change in thickness (10^-3 cm) between treated and untreated ears. […] After measuring the edema, the inflammed left ears were removed and stored at -70° C. until they were assayed for MPO (myeloperoxidase) activity where appropriate.
On the day of the assay, partially thawed ear tissues were minced and then homogenized (10% w/v) with a Tissumizer homogenizer (Tekmar Co.) in 50 mM phosphate buffer (pH 6) containing 0.5% HTAB. The tissue homogenates were taken through three cycles of freeze-thaw, followed by brief sonication (10 sec). The method of Bradley et al. was used with modifications as described. […] Supernatant MPO activity was quantified kinetically (change in absorbance measured over 3 min, sampled at 15-sec intervals) using a Beckman DU-7 spectrophotometer and a Kinetics Analysis package (Beckman Instruments, Inc.). […]

With `CCC(C)(C)c1ccc(Oc2ccc(C(F)(F)F)cc2NC(=O)Nc2ccc(Cl)c(C(F)(F)F)c2)c(S(=O)(=O)O)c1` [Example 3, 2-[2-[3-(4-Chloro-3-trifluoromethylphenyl)ureido]-4-trifluoromethylphenoxy]-5-(1,1-dimethylpropyl)benzenesulfonic acid, sodium salt] the “inhibition in these animal models” value was “positive inhibition”.
